Assay results as given in the supplement of paper PMC7661543.
± gives the standard deviation of the averaged measurements. Differences between knockout arms are mostly noise.

Tested on: HCC-38
Test: relative cell number vs DMSO control (72 h) (% of DMSO); higher = less growth inhibition (more cells)
Method: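 QMAP-Seq: a pool of 5 breast cancer cell lines (ZR-75-1, SKBR3, HCC-38, MDA-MB-231, BT-20), each carrying 12 doxycycline-inducible Cas9 sgRNA perturbations (11 knockouts plus non-targeting sgNT), was treated with compounds for 72 h at four 10-fold doses (10 nM-10 uM or 1 nM-1 uM range). Barcodes were amplified and sequenced, and cell number was interpolated from 293T spike-in standard curves. The result is expressed as % of the median of DMSO wells. Two biological replicates.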

[1] = sgRNA knockout: sgATF3, 1000 nM
[2] = sgRNA knockout: sgATF4, 1000 nM
[3] = sgRNA knockout: sgATF6, 1000 nM
[4] = sgRNA knockout: sgATG7, 1000 nM
[5] = sgRNA knockout: sgERN1, 1000 nM
[6] = sgRNA knockout: sgHSF1, 1000 nM
[7] = sgRNA knockout: sgHSF2, 1000 nM
[8] = sgRNA knockout: sgKEAP1, 100 nM
[9] = sgRNA knockout: sgKEAP1, 1000 nM
[10] = sgRNA knockout: sgNFE2L2, 10 nM
[11] = sgRNA knockout: sgNFE2L2, 100 nM
[12] = sgRNA knockout: sgNFE2L2, 1000 nM
[13] = sgRNA knockout: sgSLC35F2, 10 nM
[14] = sgRNA knockout: sgSLC35F2, 100 nM
[15] = sgRNA knockout: sgSLC35F2, 1000 nM
[16] = sgRNA knockout: sgXBP1, 1000 nM
[17] = sgRNA knockout: sgATF3, 10000 nM
[18] = sgRNA knockout: sgATF4, 10000 nM
[19] = sgRNA knockout: sgATF6, 10000 nM
[20] = sgRNA knockout: sgATG7, 10000 nM
[21] = sgRNA knockout: sgERN1, 10000 nM
[22] = sgRNA knockout: sgHSF1, 10000 nM
[23] = sgRNA knockout: sgHSF2, 10000 nM
[24] = sgRNA knockout: sgKEAP1, 10000 nM
[25] = sgRNA knockout: sgNFE2L2, 10000 nM
[26] = sgRNA knockout: sgSLC35F2, 10000 nM
[27] = sgRNA knockout: sgXBP1, 10000 nM

## CC(C)C[C@H](NC(=O)[C@H](Cc1ccccc1)NC(=O)c1cnccn1)B(O)O [Bortezomib]
sgRNA knockout: sgATF3, 1 nM
  relative cell number: 105 ± 5.8
sgRNA knockout: sgATF3, 10 nM
  relative cell number: 41.6 ± 6.8
sgRNA knockout: sgATF3, 100 nM
  relative cell number: 6.14 ± 1
[1]
  relative cell number: 6.83 ± 2.4
sgRNA knockout: sgATF4, 1 nM
  relative cell number: 91.1 ± 5.3
sgRNA knockout: sgATF4, 10 nM
  relative cell number: 43.5 ± 4.6
sgRNA knockout: sgATF4, 100 nM
  relative cell number: 5.86 ± 0.85
[2]
  relative cell number: 6.27 ± 2.2
sgRNA knockout: sgATF6, 1 nM
  relative cell number: 85 ± 4.9
sgRNA knockout: sgATF6, 10 nM
  relative cell number: 39.2 ± 2.8
sgRNA knockout: sgATF6, 100 nM
  relative cell number: 4.77 ± 0.47
[3]
  relative cell number: 7.75 ± 1.1
sgRNA knockout: sgATG7, 1 nM
  relative cell number: 88.3 ± 5.8
sgRNA knockout: sgATG7, 10 nM
  relative cell number: 46.7 ± 11
sgRNA knockout: sgATG7, 100 nM
  relative cell number: 5.72 ± 0.93
[4]
  relative cell number: 6.59 ± 0.67
sgRNA knockout: sgERN1, 1 nM
  relative cell number: 85.7 ± 6.7
sgRNA knockout: sgERN1, 10 nM
  relative cell number: 41.3 ± 5.3
sgRNA knockout: sgERN1, 100 nM
  relative cell number: 5.4 ± 1.8
[5]
  relative cell number: 5.09 ± 2.9
sgRNA knockout: sgHSF1, 1 nM
  relative cell number: 73.2 ± 1.4
sgRNA knockout: sgHSF1, 10 nM
  relative cell number: 30.5 ± 1.7
sgRNA knockout: sgHSF1, 100 nM
  relative cell number: 8.4 ± 5
[6]
  relative cell number: 7.9 ± 1.4
sgRNA knockout: sgHSF2, 1 nM
  relative cell number: 95.4 ± 4.7
sgRNA knockout: sgHSF2, 10 nM
  relative cell number: 46.3 ± 13
sgRNA knockout: sgHSF2, 100 nM
  relative cell number: 5.95 ± 2.3
[7]
  relative cell number: 7.83 ± 2.6
sgRNA knockout: sgKEAP1, 1 nM
  relative cell number: 77.8 ± 7
sgRNA knockout: sgKEAP1, 10 nM
  relative cell number: 38.8 ± 6.3
[8]
  relative cell number: 5.94 ± 0.8
[9]
  relative cell number: 7.84 ± 1.2
sgRNA knockout: sgNFE2L2, 1 nM
  relative cell number: 93.2 ± 4.9
[10]
  relative cell number: 37.8 ± 7.5
[11]
  relative cell number: 6.06 ± 1.8
[12]
  relative cell number: 5.96 ± 1.1
sgRNA knockout: sgSLC35F2, 1 nM
  relative cell number: 95.3 ± 5.3
[13]
  relative cell number: 47.37 ± 0.2
[14]
  relative cell number: 7.92 ± 1.2
[15]
  relative cell number: 8.53 ± 1.5
sgRNA knockout: sgXBP1, 1 nM
  relative cell number: 100 ± 5.3
sgRNA knockout: sgXBP1, 10 nM
  relative cell number: 44.8 ± 6.6
sgRNA knockout: sgXBP1, 100 nM
  relative cell number: 7.28 ± 2
[16]
  relative cell number: 8.11 ± 0.76

## CC(C)(C)OC(=O)CN(Cc1ccc(Cl)cc1)Cc1ccc([N+](=O)[O-])s1 [GSK4112]
sgRNA knockout: sgATF3, 10 nM
  relative cell number: 85.56 ± 0.82
sgRNA knockout: sgATF3, 100 nM
  relative cell number: 98.4 ± 7.4
[1]
  relative cell number: 96.3 ± 1.2
[17]
  relative cell number: 95.8 ± 8.2
sgRNA knockout: sgATF4, 10 nM
  relative cell number: 80.7 ± 6.5
sgRNA knockout: sgATF4, 100 nM
  relative cell number: 92.1 ± 6.8
[2]
  relative cell number: 101 ± 16
[18]
  relative cell number: 94.1 ± 19
sgRNA knockout: sgATF6, 10 nM
  relative cell number: 89.4 ± 1.4
sgRNA knockout: sgATF6, 100 nM
  relative cell number: 106 ± 1.7
[3]
  relative cell number: 97.78 ± 0.37
[19]
  relative cell number: 88.2 ± 1.9
sgRNA knockout: sgATG7, 10 nM
  relative cell number: 87.7 ± 6.8
sgRNA knockout: sgATG7, 100 nM
  relative cell number: 93.4 ± 8.8
[4]
  relative cell number: 105 ± 5.1
[20]
  relative cell number: 96.6 ± 7.4
sgRNA knockout: sgERN1, 10 nM
  relative cell number: 77.6 ± 3.7
sgRNA knockout: sgERN1, 100 nM
  relative cell number: 93 ± 11
[5]
  relative cell number: 92.1 ± 6.6
[21]
  relative cell number: 98.2 ± 19
sgRNA knockout: sgHSF1, 10 nM
  relative cell number: 88.4 ± 11
sgRNA knockout: sgHSF1, 100 nM
  relative cell number: 110 ± 6.1
[6]
  relative cell number: 111.3 ± 0.95
[22]
  relative cell number: 95.6 ± 26
sgRNA knockout: sgHSF2, 10 nM
  relative cell number: 86.1 ± 5.3
sgRNA knockout: sgHSF2, 100 nM
  relative cell number: 111 ± 1.2
[7]
  relative cell number: 106 ± 2.4
[23]
  relative cell number: 101 ± 8.2
sgRNA knockout: sgKEAP1, 10 nM
  relative cell number: 97.6 ± 26
[8]
  relative cell number: 126 ± 13
[9]
  relative cell number: 110 ± 11
[24]
  relative cell number: 111 ± 21
[10]
  relative cell number: 84.4 ± 6.1
[11]
  relative cell number: 90.9 ± 3.7
[12]
  relative cell number: 92.5 ± 7.9
[25]
  relative cell number: 91.9 ± 16
[13]
  relative cell number: 76.6 ± 4.2
[14]
  relative cell number: 99.5 ± 2.8
[15]
  relative cell number: 101 ± 11
[26]
  relative cell number: 98.4 ± 27
sgRNA knockout: sgXBP1, 10 nM
  relative cell number: 78.1 ± 5.2
sgRNA knockout: sgXBP1, 100 nM
  relative cell number: 97.3 ± 2.5
[16]
  relative cell number: 98.2 ± 5.9
[27]
  relative cell number: 101 ± 15

## C[C@]1(O)C[C@@H](c2nc(-c3ccc4ccc(-c5ccccc5)nc4c3)c3c(N)nccn32)C1 [Linsitinib]
sgRNA knockout: sgATF3, 10 nM
  relative cell number: 106 ± 4.7
sgRNA knockout: sgATF3, 100 nM
  relative cell number: 102 ± 9.5
[1]
  relative cell number: 82.7 ± 3.3
[17]
  relative cell number: 78.46 ± 0.29
sgRNA knockout: sgATF4, 10 nM
  relative cell number: 109.55 ± 0.09
sgRNA knockout: sgATF4, 100 nM
  relative cell number: 98.5 ± 5.6
[2]
  relative cell number: 79.2 ± 7
[18]
  relative cell number: 76.1 ± 9.9
sgRNA knockout: sgATF6, 10 nM
  relative cell number: 106 ± 8.4
sgRNA knockout: sgATF6, 100 nM
  relative cell number: 111 ± 15
[3]
  relative cell number: 94.9 ± 11
[19]
  relative cell number: 94.4 ± 12
sgRNA knockout: sgATG7, 10 nM
  relative cell number: 106 ± 10
sgRNA knockout: sgATG7, 100 nM
  relative cell number: 102 ± 10
[4]
  relative cell number: 85.2 ± 10
[20]
  relative cell number: 78.4 ± 10
sgRNA knockout: sgERN1, 10 nM
  relative cell number: 94.5 ± 2.5
sgRNA knockout: sgERN1, 100 nM
  relative cell number: 108 ± 20
[5]
  relative cell number: 95.8 ± 12
[21]
  relative cell number: 85.9 ± 5.9
sgRNA knockout: sgHSF1, 10 nM
  relative cell number: 127 ± 1.8
sgRNA knockout: sgHSF1, 100 nM
  relative cell number: 112 ± 34
[6]
  relative cell number: 100 ± 12
[22]
  relative cell number: 85.9 ± 8
sgRNA knockout: sgHSF2, 10 nM
  relative cell number: 103 ± 8.1
sgRNA knockout: sgHSF2, 100 nM
  relative cell number: 111.6 ± 0.38
[7]
  relative cell number: 92.5 ± 11
[23]
  relative cell number: 79.4 ± 22
sgRNA knockout: sgKEAP1, 10 nM
  relative cell number: 117 ± 5.4
[8]
  relative cell number: 118 ± 15
[9]
  relative cell number: 85.4 ± 9.7
[24]
  relative cell number: 87.6 ± 13
[10]
  relative cell number: 106 ± 5.3
[11]
  relative cell number: 95.6 ± 6.3
[12]
  relative cell number: 76.8 ± 9.6
[25]
  relative cell number: 72.1 ± 13
[13]
  relative cell number: 102 ± 3.8
[14]
  relative cell number: 112.7 ± 0.75
[15]
  relative cell number: 93.1 ± 9.8
[26]
  relative cell number: 82.3 ± 10
sgRNA knockout: sgXBP1, 10 nM
  relative cell number: 108 ± 3.8
sgRNA knockout: sgXBP1, 100 nM
  relative cell number: 98.1 ± 8.5
[16]
  relative cell number: 78.8 ± 17
[27]
  relative cell number: 76.7 ± 7.7
